Structures are written as SMILES.

Experimental findings from ChEMBL document CHEMBL4402533 (Eur J Med Chem, 2019) are described below.

The test system of the experiment is HeLa. Kind of experiment: Antiproliferative activity against human HeLa cells. Type of experiment: functional, cell-based.

As to `COc1cccc2c1C(=O)c1c(O)c3c(c(O)c1C2=O)C[C@@](O)(C(=O)CO)C[C@@H]3O[C@H]1C[C@H](N)[C@H](O)[C@H](C)O1` [DOXORUBICIN], half-maximal inhibition (IC50) was put at 1.7 µM.
